Experimental data taken from the supplement of paper PMC10849652.
The other results are listed elsewhere or left out.

Chains of the proteins cited; added tags and fusions are not shown. Lines headed by an entry give the natural chain unless they say otherwise; changes in a name come on top.
UniProt Q8N612: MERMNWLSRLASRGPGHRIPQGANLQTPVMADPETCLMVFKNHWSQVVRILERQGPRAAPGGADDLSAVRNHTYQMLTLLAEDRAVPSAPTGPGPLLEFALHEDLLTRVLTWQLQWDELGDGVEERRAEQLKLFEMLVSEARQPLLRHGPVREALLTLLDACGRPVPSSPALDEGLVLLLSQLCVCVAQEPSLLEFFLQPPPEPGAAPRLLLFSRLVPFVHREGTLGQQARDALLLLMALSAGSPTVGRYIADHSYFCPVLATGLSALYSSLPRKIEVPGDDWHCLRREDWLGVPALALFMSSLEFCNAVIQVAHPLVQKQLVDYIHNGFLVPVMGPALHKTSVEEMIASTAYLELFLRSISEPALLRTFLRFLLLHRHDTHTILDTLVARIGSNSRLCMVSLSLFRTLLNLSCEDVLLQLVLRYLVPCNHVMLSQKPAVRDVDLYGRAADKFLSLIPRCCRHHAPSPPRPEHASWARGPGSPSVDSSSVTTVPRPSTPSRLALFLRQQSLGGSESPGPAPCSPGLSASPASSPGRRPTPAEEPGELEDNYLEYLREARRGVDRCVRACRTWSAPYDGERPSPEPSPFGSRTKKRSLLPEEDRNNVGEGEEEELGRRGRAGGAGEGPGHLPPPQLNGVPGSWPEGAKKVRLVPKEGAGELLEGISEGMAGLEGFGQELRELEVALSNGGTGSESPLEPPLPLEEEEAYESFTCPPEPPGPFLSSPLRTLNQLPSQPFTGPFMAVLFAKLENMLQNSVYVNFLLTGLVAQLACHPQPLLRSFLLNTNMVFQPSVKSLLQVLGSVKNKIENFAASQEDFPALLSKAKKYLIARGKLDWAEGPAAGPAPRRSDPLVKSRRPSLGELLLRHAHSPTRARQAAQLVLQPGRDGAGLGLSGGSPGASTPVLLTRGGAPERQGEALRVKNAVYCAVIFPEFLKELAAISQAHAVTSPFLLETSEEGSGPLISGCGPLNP
UniProt O75460: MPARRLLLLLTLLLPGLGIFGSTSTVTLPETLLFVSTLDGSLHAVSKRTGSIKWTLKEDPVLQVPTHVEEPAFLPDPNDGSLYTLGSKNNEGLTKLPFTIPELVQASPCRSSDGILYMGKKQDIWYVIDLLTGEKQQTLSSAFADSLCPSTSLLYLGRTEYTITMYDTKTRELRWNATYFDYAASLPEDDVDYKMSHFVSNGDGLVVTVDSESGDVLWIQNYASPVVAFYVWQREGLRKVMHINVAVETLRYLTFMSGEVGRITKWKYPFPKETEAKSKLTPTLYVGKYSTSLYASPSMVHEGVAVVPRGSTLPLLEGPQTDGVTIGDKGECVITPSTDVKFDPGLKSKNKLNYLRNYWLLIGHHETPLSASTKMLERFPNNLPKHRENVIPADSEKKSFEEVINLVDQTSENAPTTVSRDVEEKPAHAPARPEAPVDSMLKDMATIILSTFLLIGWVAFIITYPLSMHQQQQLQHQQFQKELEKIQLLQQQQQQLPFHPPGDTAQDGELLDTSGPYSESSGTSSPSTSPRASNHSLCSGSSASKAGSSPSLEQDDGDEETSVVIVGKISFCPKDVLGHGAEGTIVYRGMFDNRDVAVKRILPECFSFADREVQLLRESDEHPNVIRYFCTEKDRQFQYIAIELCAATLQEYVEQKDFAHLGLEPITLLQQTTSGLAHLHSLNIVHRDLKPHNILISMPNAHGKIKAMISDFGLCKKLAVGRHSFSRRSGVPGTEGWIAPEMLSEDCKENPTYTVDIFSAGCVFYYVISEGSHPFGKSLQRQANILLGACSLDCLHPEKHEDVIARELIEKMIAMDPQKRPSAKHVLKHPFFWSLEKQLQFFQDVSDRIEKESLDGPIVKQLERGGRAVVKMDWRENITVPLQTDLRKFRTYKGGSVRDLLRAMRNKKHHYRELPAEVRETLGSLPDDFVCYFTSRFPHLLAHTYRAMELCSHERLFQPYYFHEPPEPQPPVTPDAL
UniProt Q9H8W3: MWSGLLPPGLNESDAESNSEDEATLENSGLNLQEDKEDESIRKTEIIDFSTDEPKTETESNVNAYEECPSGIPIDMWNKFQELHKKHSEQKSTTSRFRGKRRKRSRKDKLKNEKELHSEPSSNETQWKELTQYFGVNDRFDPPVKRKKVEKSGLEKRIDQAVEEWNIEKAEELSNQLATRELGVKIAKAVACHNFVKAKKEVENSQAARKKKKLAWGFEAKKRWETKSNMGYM
UniProt P00742, whole entry, looked up: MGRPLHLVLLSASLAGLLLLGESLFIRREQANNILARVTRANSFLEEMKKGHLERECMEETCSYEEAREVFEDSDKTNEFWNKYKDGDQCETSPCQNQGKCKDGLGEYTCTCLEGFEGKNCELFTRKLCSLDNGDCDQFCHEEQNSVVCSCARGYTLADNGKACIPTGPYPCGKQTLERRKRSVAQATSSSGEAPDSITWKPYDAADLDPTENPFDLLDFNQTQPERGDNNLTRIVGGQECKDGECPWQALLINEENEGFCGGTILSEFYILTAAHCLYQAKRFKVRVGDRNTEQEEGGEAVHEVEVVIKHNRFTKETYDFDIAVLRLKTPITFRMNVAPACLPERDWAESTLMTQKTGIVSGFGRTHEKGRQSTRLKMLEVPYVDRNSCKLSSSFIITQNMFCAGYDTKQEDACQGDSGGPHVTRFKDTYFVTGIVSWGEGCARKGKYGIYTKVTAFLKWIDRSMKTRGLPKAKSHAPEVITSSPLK
UniProt Q7Z309: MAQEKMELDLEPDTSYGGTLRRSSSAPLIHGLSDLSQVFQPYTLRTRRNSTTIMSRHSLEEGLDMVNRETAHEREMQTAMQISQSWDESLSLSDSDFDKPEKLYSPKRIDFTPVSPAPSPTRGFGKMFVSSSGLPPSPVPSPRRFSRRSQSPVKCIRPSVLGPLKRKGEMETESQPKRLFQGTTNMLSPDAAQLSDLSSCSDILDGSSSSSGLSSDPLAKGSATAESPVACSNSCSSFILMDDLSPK
UniProt Q9H501: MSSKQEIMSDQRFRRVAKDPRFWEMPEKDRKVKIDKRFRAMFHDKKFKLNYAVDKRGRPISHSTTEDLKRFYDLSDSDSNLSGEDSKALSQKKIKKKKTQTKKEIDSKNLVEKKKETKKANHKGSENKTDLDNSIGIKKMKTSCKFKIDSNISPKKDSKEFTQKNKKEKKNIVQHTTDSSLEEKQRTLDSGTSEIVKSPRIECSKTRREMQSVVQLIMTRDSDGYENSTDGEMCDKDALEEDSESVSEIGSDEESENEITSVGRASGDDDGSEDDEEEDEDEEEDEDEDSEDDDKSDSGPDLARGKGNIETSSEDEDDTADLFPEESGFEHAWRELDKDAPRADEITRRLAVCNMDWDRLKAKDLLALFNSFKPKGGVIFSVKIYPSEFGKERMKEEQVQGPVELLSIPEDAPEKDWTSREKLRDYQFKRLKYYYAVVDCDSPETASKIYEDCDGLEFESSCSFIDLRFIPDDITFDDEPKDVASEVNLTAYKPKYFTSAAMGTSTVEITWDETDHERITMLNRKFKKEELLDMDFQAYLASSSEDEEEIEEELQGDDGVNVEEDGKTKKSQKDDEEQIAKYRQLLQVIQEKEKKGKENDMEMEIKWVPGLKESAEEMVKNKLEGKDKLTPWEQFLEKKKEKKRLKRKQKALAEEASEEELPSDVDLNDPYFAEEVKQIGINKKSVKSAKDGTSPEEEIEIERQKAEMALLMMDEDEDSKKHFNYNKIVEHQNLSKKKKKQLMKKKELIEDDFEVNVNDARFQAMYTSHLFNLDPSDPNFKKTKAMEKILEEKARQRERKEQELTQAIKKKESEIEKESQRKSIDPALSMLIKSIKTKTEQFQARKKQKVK
UniProt Q86X53: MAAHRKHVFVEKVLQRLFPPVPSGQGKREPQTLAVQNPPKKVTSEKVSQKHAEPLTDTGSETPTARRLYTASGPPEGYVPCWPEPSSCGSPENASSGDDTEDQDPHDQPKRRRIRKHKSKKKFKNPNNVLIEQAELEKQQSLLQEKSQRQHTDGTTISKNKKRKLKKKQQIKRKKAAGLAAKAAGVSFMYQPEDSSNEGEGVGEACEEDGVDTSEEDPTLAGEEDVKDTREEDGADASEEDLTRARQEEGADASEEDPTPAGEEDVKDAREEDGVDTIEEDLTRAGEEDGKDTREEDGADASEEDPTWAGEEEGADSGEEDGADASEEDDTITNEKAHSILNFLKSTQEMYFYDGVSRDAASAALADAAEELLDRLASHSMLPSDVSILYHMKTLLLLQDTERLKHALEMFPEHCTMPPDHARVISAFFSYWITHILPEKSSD
UniProt Q9NSI2: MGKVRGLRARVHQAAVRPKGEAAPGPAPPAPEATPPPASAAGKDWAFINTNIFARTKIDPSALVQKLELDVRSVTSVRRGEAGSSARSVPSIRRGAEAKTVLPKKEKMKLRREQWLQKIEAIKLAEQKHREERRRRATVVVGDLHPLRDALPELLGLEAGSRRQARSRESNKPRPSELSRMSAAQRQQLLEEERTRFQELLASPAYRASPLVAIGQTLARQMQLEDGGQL
UniProt Q96PV7: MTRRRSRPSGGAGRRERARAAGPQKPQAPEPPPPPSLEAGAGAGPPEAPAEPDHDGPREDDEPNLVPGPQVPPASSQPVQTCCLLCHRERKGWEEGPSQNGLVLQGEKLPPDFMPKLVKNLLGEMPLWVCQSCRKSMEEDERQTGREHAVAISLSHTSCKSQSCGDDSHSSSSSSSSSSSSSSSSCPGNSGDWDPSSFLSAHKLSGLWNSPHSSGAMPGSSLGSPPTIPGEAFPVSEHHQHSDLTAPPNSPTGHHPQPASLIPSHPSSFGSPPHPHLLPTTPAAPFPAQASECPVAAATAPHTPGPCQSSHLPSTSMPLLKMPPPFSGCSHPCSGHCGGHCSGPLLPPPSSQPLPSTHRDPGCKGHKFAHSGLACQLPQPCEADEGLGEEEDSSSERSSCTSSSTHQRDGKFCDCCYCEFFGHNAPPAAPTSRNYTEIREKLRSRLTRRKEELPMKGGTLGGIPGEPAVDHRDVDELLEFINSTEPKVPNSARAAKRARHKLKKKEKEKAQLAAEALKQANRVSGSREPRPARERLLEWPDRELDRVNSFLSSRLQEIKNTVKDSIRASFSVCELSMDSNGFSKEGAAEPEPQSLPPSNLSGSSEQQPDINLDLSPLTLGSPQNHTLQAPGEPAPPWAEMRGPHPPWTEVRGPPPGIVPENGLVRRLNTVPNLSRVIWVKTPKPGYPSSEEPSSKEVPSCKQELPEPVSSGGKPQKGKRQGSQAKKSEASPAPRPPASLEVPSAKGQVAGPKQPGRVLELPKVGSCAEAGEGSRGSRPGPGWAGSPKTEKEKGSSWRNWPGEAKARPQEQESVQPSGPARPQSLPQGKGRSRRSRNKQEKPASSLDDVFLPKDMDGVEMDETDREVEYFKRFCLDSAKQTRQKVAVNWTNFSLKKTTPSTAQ
UniProt Q6P2I3: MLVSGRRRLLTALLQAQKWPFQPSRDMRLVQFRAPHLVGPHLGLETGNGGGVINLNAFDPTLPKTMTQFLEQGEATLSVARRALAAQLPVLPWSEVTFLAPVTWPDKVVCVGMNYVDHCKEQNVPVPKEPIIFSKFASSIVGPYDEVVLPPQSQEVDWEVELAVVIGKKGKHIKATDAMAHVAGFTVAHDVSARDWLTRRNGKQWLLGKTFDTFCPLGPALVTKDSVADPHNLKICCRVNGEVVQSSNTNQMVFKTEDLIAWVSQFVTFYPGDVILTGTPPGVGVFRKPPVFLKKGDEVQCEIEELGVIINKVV

Experiments:
Assay in all cases: log2 fold change, soluble protein after heating vs DMSO (PISA); higher = thermal stabilisation; K562 cells, 10 uM, 30 min; active = over 0.2 and 3.5 SD of the protein, either way, in both replicates (recomputed)
[1] = compound: COC1=CC=C(C=C1)CN2C=CC3=C2C=C(C=C3)C(=O)NO
Outline: (§1)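 Values are thermal stability changes relative to control samples and are taken from duplicates. They are stated as log2 fold changes. Before quantification by TMTpro 16plex LC-MS/MS with equalised channel sums, K562 cells at 2×10^6 cells/mL were treated with 10 μM compound for 30 min, heated in aliquots for 3 min across 48°C-58°C, pooled, extracted in PBS with 0.5% NP-40 at 4°C, and centrifuged at 21,000xg for 90 min to give the soluble supernatant.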

zotarolimus = compound: CO[C@H]1C[C@@H]2CC[C@@H](C)[C@@](O)(O2)C(=O)C(=O)N2CCCC[C@H]2C(=O)O[C@H]([C@H](C)C[C@@H]2CC[C@H](n3cnnn3)[C@H](OC)C2)CC(=O)[C@H](C)/C=C(\C)[C@@H](O)[C@@H](OC)C(=O)[C@H](C)C[C@H](C)/C=C/C=C/C=C/1C [zotarolimus]
Outline: as §1

alisertib = compound: COc1cc(Nc2ncc3c(n2)-c2ccc(Cl)cc2C(c2c(F)cccc2OC)=NC3)ccc1C(=O)O [alisertib]
Outline: as §1

gefitinib = compound: COc1cc2ncnc(Nc3ccc(F)c(Cl)c3)c2cc1OCCCN1CCOCC1 [gefitinib]
Outline: as §1

[2] = compound: COc1cccc2cc(-c3nc([C@H]4CC[C@H](C(=O)O)CC4)n4ncnc(N)c34)[nH]c12
Outline: as §1

pictilisib = compound: CS(=O)(=O)N1CCN(Cc2cc3nc(-c4cccc5[nH]ncc45)nc(N4CCOCC4)c3s2)CC1 [pictilisib]
Outline: as §1

crizotinib = compound: C[C@@H](Oc1cc(-c2cnn(C3CCNCC3)c2)cnc1N)c1c(Cl)ccc(F)c1Cl [crizotinib]
Outline: as §1

[3] = compound: C[C@@H]1COCCN1C2=NC(=NC(=C2)C3(CC3)S(=O)(=O)C)C4=C5C=CNC5=CC=C4
Outline: as §1

[4] = compound: C[C@H](C1=CC=C(C=C1)C(=O)NC2=C3C=CNC3=NC=C2)N
Outline: as §1

gandotinib = compound: Cc1cc(Nc2cc(CN3CCOCC3)c3nc(C)c(Cc4ccc(Cl)cc4F)n3n2)n[nH]1 [gandotinib]
Outline: as §1

[5] = compound: Cc1cc(SCc2sc(-c3ccc(C(F)(F)F)cc3)nc2C)ccc1OCC(=O)O
Outline: as §1

doramapimod = compound: Cc1ccc(-n2nc(C(C)(C)C)cc2NC(=O)Nc2ccc(OCCN3CCOCC3)c3ccccc23)cc1 [doramapimod]
Outline: as §1

ispinesib = compound: Cc1ccc(C(=O)N(CCCN)[C@@H](c2nc3cc(Cl)ccc3c(=O)n2Cc2ccccc2)C(C)C)cc1 [ispinesib]
Outline: as §1

filanesib = compound: CON(C)C(=O)N1N=C(c2cc(F)ccc2F)S[C@@]1(CCCN)c1ccccc1 [filanesib]
Outline: as §1

[6] = compound: COc1cc2nc(-c3cc(F)ccc3O)nc(N[C@@H]3CNC[C@H]3C(C)(C)O)c2cc1OC
Outline: as §1

lapatinib = compound: CS(=O)(=O)CCNCc1ccc(-c2ccc3ncnc(Nc4ccc(OCc5cccc(F)c5)c(Cl)c4)c3c2)o1 [lapatinib]
Outline: as §1

[7] = compound: CS(=O)(=O)c1ccc(-c2cnc(N)c(C(=O)Nc3ccccc3)n2)cc1
Outline: as §1

duvelisib = compound: C[C@H](Nc1ncnc2nc[nH]c12)c1cc2cccc(Cl)c2c(=O)n1-c1ccccc1 [duvelisib]
Outline: as §1

tozasertib = compound: Cc1cc(Nc2cc(N3CCN(C)CC3)nc(Sc3ccc(NC(=O)C4CC4)cc3)n2)n[nH]1 [tozasertib]
Outline: as §1

idasanutlin = compound: COc1cc(C(=O)O)ccc1NC(=O)[C@@H]1N[C@@H](CC(C)(C)C)[C@](C#N)(c2ccc(Cl)cc2F)[C@H]1c1cccc(Cl)c1F [idasanutlin]
Outline: as §1

Measured: log2 fold change

FAM160A2 isoform 2 (UniProt Q8N612)
inactive: [1] -0.082 | zotarolimus 0.067 | alisertib 0.031 | gefitinib 0.158 | [2] 0.103 | pictilisib -0.056 | crizotinib -0.004 | [3] 0.042 | [4] -0.041 | gandotinib 0.115 | [5] 0.212 | doramapimod -0.003 | ispinesib -0.192

ERN1 (UniProt O75460)
inactive: [1] -0.141 | filanesib -0.017 | alisertib 0.138 | [6] 0.082 | gefitinib -0.027 | [2] 0.136 | lapatinib -0.084 | pictilisib -0.64 | [7] 0.257 | crizotinib 0.134 | [3] 0.092 | duvelisib 0.148 | gandotinib -0.096 | tozasertib 0.017 | [5] 0.079 | doramapimod 0.082 | ispinesib -0.082

FAM204A (UniProt Q9H8W3)
inactive: filanesib 0.199 | zotarolimus -0.24 | alisertib 0.951 | [2] -0.075 | pictilisib 0.009 | [7] 0.054 | [3] -0.267 | [4] 0.194 | gandotinib 0.037 | tozasertib 0.157

F10 (UniProt P00742)
inactive: [1] -0.06 | filanesib 0.157 | alisertib -0.095 | gefitinib -0.156 | [2] 0.157 | [7] 0.023 | crizotinib 0.288 | [3] 0.042 | tozasertib 0.081 | doramapimod 0.037 | ispinesib 0.13

ESYT2 (UniProt H7BXI1)
inactive: filanesib -0.165 | idasanutlin -0.085 | alisertib -0.154 | [6] 0.011 | gefitinib -0.02 | [2] 0 | lapatinib -0.09 | [7] 0.027 | [3] -0.324 | duvelisib -0.149 | [5] 0.009

Copied from above (2 entries):
FAM204A (UniProt Q9H8W3)
inactive: filanesib 0.199 | zotarolimus -0.24 | alisertib 0.951 | [2] -0.075 | pictilisib 0.009 | [7] 0.054 | [3] -0.267 | [4] 0.194 | gandotinib 0.037 | tozasertib 0.157

F10 (UniProt P00742)
inactive: [1] -0.06 | filanesib 0.157 | alisertib -0.095 | gefitinib -0.156 | [2] 0.157 | [7] 0.023 | crizotinib 0.288 | [3] 0.042 | tozasertib 0.081 | doramapimod 0.037 | ispinesib 0.13

Remaining list, next part.

FAM122B isoform 3 (UniProt Q7Z309)
inactive: [1] -0.173 | filanesib 0.057 | zotarolimus 0.011 | idasanutlin 0.335 | alisertib -0.102 | gefitinib -0.009 | [2] 0.002 | pictilisib -0.102 | [7] -0.072 | crizotinib -0.004 | [3] 0.131 | [4] -0.132 | duvelisib 0.133 | gandotinib 0.046 | tozasertib -0.085 | [5] -0.096 | doramapimod 0.026 | ispinesib 0.063

ESF1 (UniProt Q9H501)
inactive: filanesib 0.159 | pictilisib -0.044 | [7] 0.095 | duvelisib -0.142 | gandotinib -0.075 | [5] -0.099 | ispinesib -0.176

ERICH1 (UniProt Q86X53)
inactive: [1] -0.021 | [6] 0.017 | lapatinib -0.009 | crizotinib -0.027 | tozasertib -0.081 | doramapimod -0.092

FAM207A (UniProt Q9NSI2)
inactive: [1] -0.034 | filanesib 0.238 | idasanutlin 0.009 | alisertib 0.238 | [6] 0.108 | gefitinib -0.124 | [2] -0.146 | lapatinib 0.041 | pictilisib -0.097 | [7] 0.009 | crizotinib 0.075 | [3] 0.08 | gandotinib -0.039 | [5] -0.098 | doramapimod 0.101 | ispinesib -0.077

FAM193B (UniProt Q96PV7)
inactive: [1] -0.179 | filanesib 0.379 | zotarolimus -0.077 | idasanutlin 0.311 | [6] 0.112 | lapatinib -0.066 | [7] -0.065 | crizotinib -0.081 | [3] -0.097 | [4] 0.348 | [5] -0.189 | doramapimod -0.046

FAHD2B (UniProt Q6P2I3)
inactive: [1] 0.102 | zotarolimus 0.092 | idasanutlin 0.261 | alisertib -0.033 | [6] -0.122 | gefitinib -0.093 | [2] 0.186 | lapatinib 0.061 | crizotinib 0.076 | [3] 0.108 | [4] -0.139 | duvelisib 0.08 | [5] -0.033 | doramapimod -0.102 | ispinesib 0.118

EPPK1 (UniProt P58107)
inactive: [1] 0.017 | filanesib 0.413 | zotarolimus 0.135 | alisertib 1.32 | [6] -0.044 | gefitinib -0.093 | [2] -0.167 | lapatinib 0 | pictilisib 0 | [7] 0.117 | crizotinib -0.104 | [3] -0.316 | [4] 0.619 | duvelisib -0.133 | gandotinib 0.112 | tozasertib -0.013 | [5] 0.045 | doramapimod 0.257 | ispinesib -0.456
